Results are given in words; binding and its absence hold for the method and conditions named. Binding seen in cells or lysates may run through a third protein. Some results given as binding are weak or reduced against the parent protein; the word gives no strength.
Molecular target: KSHV RTA, endogenous in lytically reactivated iSLK/rKSHV.219 cells (KSHV (human herpesvirus 8)) (UniProt F5HCV3)
Test: co-IP

Protein sequences, listed by entry. Tags and fused reporters are not part of them.
UniProt F5HCV3: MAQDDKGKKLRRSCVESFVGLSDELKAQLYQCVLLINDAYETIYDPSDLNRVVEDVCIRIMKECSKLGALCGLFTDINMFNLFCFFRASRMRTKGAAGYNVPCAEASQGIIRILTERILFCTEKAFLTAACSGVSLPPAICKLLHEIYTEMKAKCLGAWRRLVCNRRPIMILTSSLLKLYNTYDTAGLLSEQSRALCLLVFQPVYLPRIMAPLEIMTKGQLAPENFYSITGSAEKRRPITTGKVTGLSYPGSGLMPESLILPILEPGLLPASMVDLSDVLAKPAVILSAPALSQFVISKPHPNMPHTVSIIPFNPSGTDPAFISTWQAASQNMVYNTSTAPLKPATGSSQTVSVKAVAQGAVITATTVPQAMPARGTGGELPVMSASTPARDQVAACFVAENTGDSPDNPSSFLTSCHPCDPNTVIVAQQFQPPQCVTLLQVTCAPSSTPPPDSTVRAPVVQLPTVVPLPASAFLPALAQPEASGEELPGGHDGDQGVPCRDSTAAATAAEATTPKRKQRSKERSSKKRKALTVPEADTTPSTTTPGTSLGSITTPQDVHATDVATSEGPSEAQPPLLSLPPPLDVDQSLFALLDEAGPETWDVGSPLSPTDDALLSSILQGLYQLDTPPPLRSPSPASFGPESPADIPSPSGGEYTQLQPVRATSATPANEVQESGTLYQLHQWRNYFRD
UniProt Q96BN8: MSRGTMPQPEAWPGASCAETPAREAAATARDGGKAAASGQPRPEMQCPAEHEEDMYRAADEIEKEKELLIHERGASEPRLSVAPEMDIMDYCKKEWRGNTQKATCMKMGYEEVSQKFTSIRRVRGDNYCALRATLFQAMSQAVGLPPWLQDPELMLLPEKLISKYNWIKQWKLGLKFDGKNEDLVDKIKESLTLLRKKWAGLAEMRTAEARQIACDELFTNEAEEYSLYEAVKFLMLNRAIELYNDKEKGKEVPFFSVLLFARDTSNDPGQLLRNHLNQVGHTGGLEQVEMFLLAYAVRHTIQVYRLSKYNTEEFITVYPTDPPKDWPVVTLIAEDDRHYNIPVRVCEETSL

**Q.** Which binding does the source give for “OTULIN, endogenous in iSLK/rKSHV.219 cells (from UniProt Q96BN8 1-352) (enzyme)” here?
**A.** binds
